These are yes or no findings as the source states them, for the method shown. Binding seen in cells or lysates may run through a third protein. Tags and fused reporters may be left off the sequences shown.
Target: T1, Rx-v5 (UniProt Q9XGF5)
T1 sequence: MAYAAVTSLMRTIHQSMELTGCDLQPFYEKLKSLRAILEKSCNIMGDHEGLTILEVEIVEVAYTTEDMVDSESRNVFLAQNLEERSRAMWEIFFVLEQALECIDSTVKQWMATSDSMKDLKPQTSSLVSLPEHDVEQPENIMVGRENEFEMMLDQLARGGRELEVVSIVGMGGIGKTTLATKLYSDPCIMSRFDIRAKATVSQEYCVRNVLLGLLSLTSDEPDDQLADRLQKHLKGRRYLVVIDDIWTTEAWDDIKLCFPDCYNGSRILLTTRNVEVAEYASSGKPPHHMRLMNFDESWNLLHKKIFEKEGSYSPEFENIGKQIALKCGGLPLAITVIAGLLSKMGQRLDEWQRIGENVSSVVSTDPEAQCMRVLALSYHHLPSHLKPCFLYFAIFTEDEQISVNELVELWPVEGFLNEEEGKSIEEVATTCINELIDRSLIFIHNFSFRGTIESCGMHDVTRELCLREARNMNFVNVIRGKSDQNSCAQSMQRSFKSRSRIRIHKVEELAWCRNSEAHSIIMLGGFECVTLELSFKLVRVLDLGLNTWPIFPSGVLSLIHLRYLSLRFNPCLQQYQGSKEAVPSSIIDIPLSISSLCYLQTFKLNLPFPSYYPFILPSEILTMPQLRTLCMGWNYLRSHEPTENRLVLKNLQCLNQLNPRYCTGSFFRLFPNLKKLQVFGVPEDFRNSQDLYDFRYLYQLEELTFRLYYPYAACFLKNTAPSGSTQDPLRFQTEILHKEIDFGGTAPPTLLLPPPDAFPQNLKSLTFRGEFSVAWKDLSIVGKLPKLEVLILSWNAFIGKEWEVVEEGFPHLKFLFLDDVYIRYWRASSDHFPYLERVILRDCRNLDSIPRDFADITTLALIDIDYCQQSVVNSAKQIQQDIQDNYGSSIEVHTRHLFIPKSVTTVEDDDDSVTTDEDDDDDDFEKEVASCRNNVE
Experiment: co-IP

binding: no binding
Substance: Pikm-2-6xHA (from UniProt P0DO08) (receptor)

Reference: paper doi:10.64898/2025.11.30.691369
